Among the data in article PMC12786370 are binding values, retold here.

Chains of the proteins cited; added tags and fusions are not shown. Residues count along the entry.
UniProt P19875, residues 35-107: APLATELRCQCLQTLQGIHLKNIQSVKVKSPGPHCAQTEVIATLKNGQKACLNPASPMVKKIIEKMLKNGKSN
UniProt P67809: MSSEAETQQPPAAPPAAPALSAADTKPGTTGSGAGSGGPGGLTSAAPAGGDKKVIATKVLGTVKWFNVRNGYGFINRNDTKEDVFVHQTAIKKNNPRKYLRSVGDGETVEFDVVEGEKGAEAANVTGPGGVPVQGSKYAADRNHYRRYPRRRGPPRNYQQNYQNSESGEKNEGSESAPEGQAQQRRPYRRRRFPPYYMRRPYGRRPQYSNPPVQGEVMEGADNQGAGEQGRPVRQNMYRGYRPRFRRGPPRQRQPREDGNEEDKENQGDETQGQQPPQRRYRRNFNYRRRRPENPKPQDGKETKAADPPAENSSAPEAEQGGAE

Results are given in words; binding and its absence hold for the method and conditions named. In cells and extracts the contact can be indirect. Here binding means that the protein was enriched with, or labelled near, the bait; the list need not be complete.

This test deals with C-X-C motif chemokine ligand 2 (CXCL2), Flag-tagged, full length, overexpressed in HCC cells (UniProt P19875). Briefly: affinity purification with mass spectrometry; immunoprecipitate of CXCL2 (IP) against IgG, LC-MS/MS; cells and antibody not told in the text shown.

Take “Y-Box Binding Protein 1 (YBX1) in HCC cells (from UniProt P67809 1-324)”: the binding entry is reported as “binds”.
